# Results published in PubChem BioAssay AID2417 (National Center for Advancing Translational Sciences (NCATS), 2010).
# About 4,300 (3.1%) of roughly 140,000 compounds were called active. Inconclusive means that the source gave no clear call. Such entries were picked first, then a sample of the others.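 The calls were made as follows: active = readout at or below -70, meaning at least 70% loss of cells showing the perinucleolar compartment, a nuclear body marking cancer cells; inconclusive = readout between -30 and a set limit; inactive = the rest.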
# Assay: High Content Assay for Compounds that inhibit the Assembly of the Perinucleolar Compartment;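 also: plate controls were DMSO wells for no effect and camptothecin positive control wells for full effect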
# Conditions: PC3M PTB-GFP, PNC prevalence imaging, 16 h; at 10 µM; active compounds read low
# Outline: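 Compounds are pinned in duplicate onto adhered PC3M cells stably expressing GFP-tagged PTB and incubated 16 h at 37 C. Cells are then fixed, nuclei stained with Hoechst, and PNC-positive cells counted.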
row,Structure (SMILES),"activity change (PNC), negative = inhibition"
1,COc1ccccc1N1CCN(C(=O)CN(c2ccc(C)c(C)c2)S(C)(=O)=O)CC1,inconclusive: -37.4%
2,Cc1ccc2oc(=O)c3cnn(CC(=O)N4CCN(c5ccccn5)CC4)c3c2c1,inconclusive: -65.7%
3,Cc1cccc(S(=O)(=O)Nc2nc3ccccc3nc2NCc2ccc3c(c2)OCO3)c1,inactive: 28.9%
4,C=Cn1c(N2CCOCC2)nc2c1c(=O)[nH]c(=O)n2C,inconclusive: -51.5%
5,COc1ccc(-c2cn3c(C)c(C(=O)Nc4cccc(C)n4)sc3n2)cc1,inconclusive: -31.7%
6,O=C(Nc1ccc(Cl)cc1)N1CCC(c2nc(-c3ccc(F)cc3)no2)CC1,inconclusive: -53.6%
7,O=C(c1ccc(Cl)c(S(=O)(=O)N2CCc3ccccc3C2)c1)N1CCN(c2ccccc2)CC1,inconclusive: -42.3%
8,CCOC(=O)CCNC(=O)Nc1ccc2nc(C)n(Cc3ccc(Cl)cc3)c(=O)c2c1,inactive: -18.2%
9,Cc1csc(/C(=N\O)c2csc(C)n2)n1,active: -100%
10,O=C(Nc1nc2n(n1)C(c1ccccc1)CC(c1ccc(Cl)cc1)N2)c1ccco1 (stereo not drawn),inconclusive: -73.4%
11,COc1ccc(/C=N/NC(=O)CSc2nnc(CCCc3ccc(OC)c(C)c3)o2)cc1,inconclusive: -30.1%
12,CCCC(C)NC(=O)COc1ccc(S(=O)(=O)c2ccc(OCC(=O)NC(C)CCC)cc2)cc1 (stereo not drawn),inactive: 6.24%
13,Cn1c(Cl)c(/C=N/OC(=O)c2ccccc2Cl)c2ccccc21,inconclusive: -78%
14,CC(NC(=S)Nc1ccc(S(N)(=O)=O)cc1)c1ccc2c(c1)OCO2 (stereo not drawn),inactive: -20.3%
15,Cc1ccc(C)c(NC(NC(=O)c2cccnc2)C(Cl)(Cl)Cl)c1 (stereo not drawn),inconclusive: -43.3%
16,Cc1nc(SCC(=O)N2CCc3ccccc3C2)c2c(C)c(C)sc2n1,inconclusive: -71%
17,Cc1ccc(S(=O)(=O)N2CCC(=O)N(C(COCc3ccc(Cl)cc3)Cc3ccccc3)CC2)cc1 (stereo not drawn),inactive: 36.7%
18,CC(C)C(=O)c1cn(CC(=O)NCc2ccc3c(c2)OCO3)c2ccccc12,inactive: 210%
19,O=C(CCNS(=O)(=O)c1cccc2nonc12)NC1CCCc2ccccc21 (stereo not drawn),inconclusive: -36.3%
20,Cc1ccc2c(CC(=O)N3CCN(S(=O)(=O)c4cccs4)CC3)coc2c1,inconclusive: -47.8%
21,C=CCNc1nnc(SC2CC(=O)N(c3ccc(OCCC)cc3)C2=O)s1 (stereo not drawn),inactive: 38.2%
22,O=C(Cc1ccccc1)Nc1ccc(SC(F)F)cc1,inconclusive: -33.5%

# Shown bar-delimited: entries from further up.
row | Structure (SMILES) | activity change (PNC), negative = inhibition
6 | O=C(Nc1ccc(Cl)cc1)N1CCC(c2nc(-c3ccc(F)cc3)no2)CC1 | inconclusive: -53.6%
7 | O=C(c1ccc(Cl)c(S(=O)(=O)N2CCc3ccccc3C2)c1)N1CCN(c2ccccc2)CC1 | inconclusive: -42.3%
8 | CCOC(=O)CCNC(=O)Nc1ccc2nc(C)n(Cc3ccc(Cl)cc3)c(=O)c2c1 | inactive: -18.2%

# The list continues.

row,Structure (SMILES),"activity change (PNC), negative = inhibition"
1,Cc1cccc(OCCCC(=O)N2CCCc3ccccc32)c1C,inactive: 0.977%
2,N=c1c2c(-c3ccccc3)c(-c3ccccc3)n(Cc3ccco3)c2ncn1CCCn1ccnc1,active: -98.3%
3,COc1ccc(OC)c(C2C3=C(N=C4SCC(=O)N42)c2ccccc2CC3)c1 (stereo not drawn),inconclusive: -31.6%
4,NC(=O)c1ccccc1NS(=O)(=O)Cc1ccccc1,inconclusive: -62.4%
5,C=CCSc1nnc(-c2cnn(-c3ccccc3)c2-n2cccc2)n1C,inactive: -22.7%
6,CC(CC(=O)Nc1ccc(Cl)c([N+](=O)[O-])c1)c1ccccc1 (stereo not drawn),inconclusive: -43.9%
7,O=C(CSc1nnc(-c2cccnc2)n1Cc1ccco1)c1ccc2ccccc2c1,inactive: 18.9%
8,CCCCOC(=O)c1ccc(NC(=O)c2ccoc2C)cc1,inconclusive: -44.4%
9,O=C(CC1c2ccccc2Oc2ccccc21)N1CCN(c2ccccn2)CC1,inactive: -11.7%
10,Clc1cccc(OCCCN2CCCC2)c1Cl,inconclusive: -70.9%
11,CCCc1nc2ccccc2n1CCOc1ccccc1,inactive: 25.5%
12,CCOc1ccc(OCC(=O)Nc2ccc(S(=O)(=O)Nc3cc(C)nc(C)n3)cc2)cc1,inconclusive: -30.6%
13,CCOC(=O)CNC(=O)CSc1nnc(-c2cccc(C)c2)n1-c1ccc(OC)cc1,inconclusive: -33.9%
14,CCCC1CCC(c2nc(-c3cccnc3)no2)CC1 (stereo not drawn),inconclusive: -48%
15,COc1ccccc1N1CCN(S(=O)(=O)Cc2ccccc2Cl)CC1,inconclusive: -49%
16,Cc1ccc(S(=O)(=O)NCc2ccc(/C=C(/C#N)C(=O)NCc3ccccc3)o2)cc1,inconclusive: -71.3%
17,OCc1nnc2c3ccccc3c(-c3ccccc3)nn12,inconclusive: -32.4%
18,O=C(Cn1cc2c(n1)CCCC2)NCc1ccccn1,inactive: -18.7%
19,COc1ccc(Cc2nn3c(-c4ccccc4Br)nnc3s2)cc1,inconclusive: -32.3%
20,N#Cc1c(-c2ccc3c(c2)OCO3)csc1N,active: -103%
21,Cc1ccc(-c2nnc(SCc3nc(N)nc(Nc4ccccc4C)n3)n2N)cc1,inconclusive: -36.9%
22,Cc1ccc(S(=O)(=O)N2CCCOC2CNC(=O)C(=O)NCc2ccncc2)cc1 (stereo not drawn),inconclusive: -35.6%

row,Structure (SMILES),"activity change (PNC), negative = inhibition"
1,O=C(O)c1cnn2c(C(F)(F)F)cc(-c3ccccc3)nc12,inconclusive: -31.8%
2,CC(C)C(=O)Nc1ccccc1C(=O)OCC(=O)c1ccc2c(c1)OCCO2,inconclusive: -37.7%
3,CC(=O)c1cccc(NC(=O)N2CCc3ccccc3C2)c1,inactive: 10.7%
4,Cc1ccnc(NC(=O)C2CCN(S(=O)(=O)c3cccc4nsnc34)CC2)c1,inconclusive: -73%
5,c1ccc(-c2nc(NCC3CCCO3)c3oc4ccccc4c3n2)cc1 (stereo not drawn),inactive: 6.33%
6,O=C(NCCc1c[nH]c2ccccc12)C(=O)NCC(c1cccnc1)N1CCN(c2ccccc2)CC1 (stereo not drawn),inconclusive: -54.9%
7,O=C(CNS(=O)(=O)c1ccccc1)Nc1ccc(C(F)(F)F)cc1,inconclusive: -54.9%
8,COc1ccc(C2Nc3ccccc3C(=O)N2c2ccc(F)cc2)cc1CSc1ccccn1 (stereo not drawn),inconclusive: -32%
9,Cc1cc(C)c(C(N)=O)c(Nc2ccc3c(c2)OCCO3)n1,active: -100%
10,N#C/C(C(N)=O)=c1/ccc2c(c1)N1C3=C(CCCC3)CC3CCCCC31N=2 (stereo not drawn),inactive: -19.4%
11,CCOC(=O)C1=C(Cn2cnc3ccccc32)NC(=O)NC1c1cc(C)ccc1C (stereo not drawn),inactive: -27.8%
12,Cc1cc(C)cc(OCc2nnc(SCC(=O)N3CCN(c4ccccc4)CC3)o2)c1,inconclusive: -66.7%
13,O=C(CSc1nnc(Cc2ccccc2)o1)NCc1ccco1,inconclusive: -64.1%
14,CC(C)(C)C1(C)OC(C(=O)NC2CCCCC2)C(C(=O)NC2CCCCC2)O1 (stereo not drawn),inconclusive: -49%
15,O=C(CCN1C(=O)C2C3C=CC(C4CC34)C2C1=O)Oc1cccc2cccnc12 (stereo not drawn),inconclusive: -35.9%
16,CCCOCCOC(=O)c1[nH]c2c(c1C)C(=O)CC(c1cc(OC)ccc1OC)C2 (stereo not drawn),inconclusive: -51.5%
17,c1cc2cn[nH]c2cc1NC1CCCCCC1,inconclusive: -49.8%
18,CC(C)C(=O)Nc1cccc(S(=O)(=O)c2cccc(NC(=O)C(C)C)c2)c1,inconclusive: -40.7%
19,O=C(O)c1ccccc1NS(=O)(=O)c1cccc2cccnc12,inactive: 23.1%
20,Cc1nn(C)c(C(=O)NNC(=S)NCC(C)C)c1Cl,active: -114%
21,CCOC(=O)CC(=O)CSc1nnc2sc3ccccc3n12,inconclusive: -42%
22,COC(=O)CSC1=C(C#N)C(c2ccc(C(C)C)cc2)CC(=O)N1 (stereo not drawn),inactive: -15.1%

# Structures listed so far with a cyano group (four):
row,Structure (SMILES),"activity change (PNC), negative = inhibition"
16,Cc1ccc(S(=O)(=O)NCc2ccc(/C=C(/C#N)C(=O)NCc3ccccc3)o2)cc1,inconclusive: -71.3%
20,N#Cc1c(-c2ccc3c(c2)OCO3)csc1N,active: -103%
10,N#C/C(C(N)=O)=c1/ccc2c(c1)N1C3=C(CCCC3)CC3CCCCC31N=2 (stereo not drawn),inactive: -19.4%
22,COC(=O)CSC1=C(C#N)C(c2ccc(C(C)C)cc2)CC(=O)N1 (stereo not drawn),inactive: -15.1%

# Carrying on:

row,Structure (SMILES),"activity change (PNC), negative = inhibition"
1,O=C(CSc1nnc(SCC(=O)NCc2ccc3c(c2)OCO3)s1)NCc1ccc2c(c1)OCO2,inconclusive: -54.3%
2,CC1(C)CC2CC(C)(CN2C(=O)COc2cccc3ccccc23)C1 (stereo not drawn),inactive: 2.91%
3,CCOC(=O)C1=C(C)N=C2SCCC(=O)N2C1c1ccc(C(=O)OC)cc1 (stereo not drawn),inactive: -6.48%
4,CCOc1ccc2c(c1)OC(c1ccc(OC)cc1)(C(F)(F)F)NC2=O (stereo not drawn),active: -91.9%
5,O=C(N1CCCCCC1)n1c(Cc2ccccc2)nc2ccccc21,active: -119%
6,COc1cc(OC)c(N(C)C(=O)CCNC(=O)Cn2cnc3ccccc3c2=O)cc1Cl,inconclusive: -55%
7,CC12C=CC3(CN(Cc4ccccc4)C(=O)C3C1C(=O)NCc1ccco1)O2 (stereo not drawn),inconclusive: -32.9%
8,CC1=Nn2c(nnc2-c2ccccc2)SC1,inconclusive: -53.8%
9,Cc1cccc(NC(=O)c2ccc(-n3cccn3)c([N+](=O)[O-])c2)c1,inconclusive: -33%
10,c1ccc(Cc2nnc3sc(-c4cccs4)nn23)cc1,inactive: -25.9%
11,Cc1nc([N+](=O)[O-])c(N2CCN(C)CC2)n1Cc1ccccc1,active: -88.1%
12,Clc1ccc(-c2cc3ccccc3nc2N2CCCC2)cc1,inconclusive: -76.5%
13,Cc1c(C(=O)O)sc(=S)n1-c1ccccc1,inconclusive: -35%
14,N#Cc1c(-c2cccc(F)c2)cc(-c2ccccc2)nc1Br,inactive: 26.9%
15,CCOC(=O)N1CCN(C(=O)c2ccccc2Oc2ccccc2)CC1,inconclusive: -70.8%
16,COc1cc(NC(=O)c2c(F)c(F)c(F)c(F)c2F)c(OC)cc1Cl,inconclusive: -66.7%
17,CCOC(=O)CC12CN3CN(C1)CC(CC(=O)OCC)(C3)C2=O,inconclusive: -51.9%
18,O=C(NC(=S)Nc1ccc2[nH]ncc2c1)c1ccccc1,inconclusive: -39.9%
19,Cc1cc(/C=C2/SC(=O)NC2=O)c(C)n1-c1ccc(N2CCOCC2)cc1,inconclusive: -59.2%
20,O=C(CC(=O)c1cc(Cl)ccc1O)c1ccccc1,inconclusive: -42.2%
21,COC(=O)c1ccccc1NC(=O)CSCC(=O)Nc1ccccc1OC,inactive: 33.1%
22,Cc1nc2ccc(S(=O)(=O)NC(C(=O)N3CCn4c3nc3ccccc34)C(C)C)cc2s1 (stereo not drawn),inconclusive: -34.9%
